PubChem BioAssay AID1259254, NCATS | 2017
Purpose: 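Finding genes that stop cells copying their DNA twice in one cycle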 (primary screen). Cells: human HCT116 colorectal cancer cells. Reagent: single siRNA against human genes. Duration: 3 days. Measured: 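Nuclei stained with Hoechst and imaged; cell-cycle phase assigned by DNA content; G2 share scaled per plate, non-targeting siRNA 0%, GMNN siRNA 100%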. Reading the numbers: G2 robust z-score: higher = more G2 cells, more excess DNA replication. Rule for the call: 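An siRNA counts as active if its G2 robust z-score lies at least 5 MADs above the screen median; here such calls match roughly 38% of GMNN control or more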.
Shown is one part, drawn at random, of about 59,000 deposited reagents. About 1,550 of all reagents (2.6%) count as active. 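G2 share is only a proxy for re-replication; each gene was hit by three separate siRNAs, and active genes were retested.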 Unmarked entries are inactive. Further read-outs or replicates are left out here. The record does not give: the amount of reagent.

Silencing of CST3 [SID160749781] gave: G2 robust z-score -0.3.
CST3 [SID160749791] gave G2 robust z-score 3.32.
Depletion of CST3 [SID160749800] came out at: G2 robust z-score -0.0822.
For IRAK3 [SID160730205] the deposit lists G2 robust z-score 0.0245.
Knock-down of IRAK3 [SID160730206] gave: G2 robust z-score 0.0397.
With knock-down of IRAK3 [SID160730207] the results were G2 robust z-score -0.669.
Depletion of MDFIC [SID160739415] gave: G2 robust z-score 1.56.
MDFIC [SID160739416] showed G2 robust z-score 0.197.
Against MDFIC [SID160739417], the entry reads G2 robust z-score 1.15.
HAP1 [SID160721257] showed G2 robust z-score -0.672.
With knock-down of HAP1 [SID160721258] the results were G2 robust z-score -0.292.
HAP1 [SID160721259] scored G2 robust z-score 0.496.
Against ANKRD13C-DT [SID160730043], the values are G2 robust z-score 0.684.
After knock-down of ANKRD13C-DT [SID160730044], the record shows G2 robust z-score -0.387.
After knock-down of ANKRD13C-DT [SID160730045] the results were G2 robust z-score -0.382.
For LDHAL6A [SID160759757], the values are G2 robust z-score 0.596.
LDHAL6A [SID160759758] scored G2 robust z-score 1.15.
LDHAL6A [SID160759759] gave G2 robust z-score 1.73.
AOPEP [SID160752912] gave G2 robust z-score 0.908.
Against AOPEP [SID160752913] the deposit lists G2 robust z-score -0.951.
Against AOPEP [SID160752914], the entry reads G2 robust z-score 0.462.
After knock-down of CABLES1 [SID160754099], the screen gave G2 robust z-score -0.994.
CABLES1 [SID160754100] gave G2 robust z-score -0.386.
CABLES1 [SID160754101] scored G2 robust z-score 0.197.

Not a retest: 4 of the entries above.
IRAK3 [SID160730207] → G2 robust z-score: -0.669
MDFIC [SID160739415] → G2 robust z-score: 1.56
MDFIC [SID160739416] → G2 robust z-score: 0.197
MDFIC [SID160739417] → G2 robust z-score: 1.15
